According to paper doi:10.1101/2025.03.20.644192:
Results are given in words; binding and its absence hold for the method and conditions named. Binding seen in cells or lysates may run through a third protein. These calls come from enrichment with a bait or labelling near it, and not all partners need be listed.

Chains of the proteins cited; added tags and fusions are not shown.
UniProt Q15759: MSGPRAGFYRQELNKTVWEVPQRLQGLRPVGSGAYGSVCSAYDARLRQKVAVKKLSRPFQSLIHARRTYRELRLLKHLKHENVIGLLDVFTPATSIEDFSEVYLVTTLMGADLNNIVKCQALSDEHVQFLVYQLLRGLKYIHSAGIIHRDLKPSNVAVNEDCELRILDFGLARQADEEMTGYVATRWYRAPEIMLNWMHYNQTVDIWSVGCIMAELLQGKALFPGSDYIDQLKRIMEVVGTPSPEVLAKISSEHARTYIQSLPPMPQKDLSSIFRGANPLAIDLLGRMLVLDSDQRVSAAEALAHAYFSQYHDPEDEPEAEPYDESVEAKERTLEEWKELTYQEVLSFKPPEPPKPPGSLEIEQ

Target: SidBait-p38β (UniProt Q15759)
Test: proximity labelling; only the target purified

B1: MAP2K4 (protein, UniProt P45985 1-399)
chain: MAAPSPSGGGGSGGGSGSGTPGPVGSPAPGHPAVSSMQGKRKALKLNFANPPFKSTARFTLNPNPTGVQNPHIERLRTHSIESSGKLKISPEQHWDFTAEDLKDLGEIGRGAYGSVNKMVHKPSGQIMAVKRIRSTVDEKEQKQLLMDLDVVMRSSDCPYIVQFYGALFREGDCWICMELMSTSFDKFYKYVYSVLDDVIPEEILGKITLATVKALNHLKENLKIIHRDIKPSNILLDRSGNIKLCDFGISGQLVDSIAKTRDAGCRPYMAPERIDPSASRQGYDVRSDVWSLGITLYELATGRFPYPKWNSVFDQLTQVVKGDPPQLSNSEEREFSPSFINFVNLCLTKDESKRPKYKELLKHPFILMYEERAVEVACYVCKILDQMPATPSSPMYVD
With B1 the binding was “binds”.
